Measurements: patent US20120231011A1 (APEXIGEN, published 2012)
Numbering of substitutions follows the chain as printed. No constants are given. Whether binding was seen depends on the method and setting. Some results given as binding are weak or reduced against the parent protein; the word gives no strength. For some of these results: Sequences can lack the tags named with a protein. Blank lines part the entries; values can stand above or below the binder they belong to.

Amino acid sequences for entries named in this document (tags omitted). A change or cut given only in a name is not applied to a line headed by its entry. Chains listed by the source or under a name are the forms on record and can include a tag or linker.
human VEGF (P15692-4, form named): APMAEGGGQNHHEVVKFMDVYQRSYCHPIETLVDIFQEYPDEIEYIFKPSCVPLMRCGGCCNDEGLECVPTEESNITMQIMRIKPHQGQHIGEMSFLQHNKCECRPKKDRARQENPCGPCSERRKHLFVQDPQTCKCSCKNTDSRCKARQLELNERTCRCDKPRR

Experiments:
[1] = target: IgG Fc-hVEGF-A (Human VEGF 165) fusion protein (rabbit; human) (UniProt P15692); assay: competitive ELISA, antibody 90 ug/ml-45 ng/ml premixed with IgG Fc-hVEGF 1 ug/ml, plate coated with IgG Fc-VEGFR2
[2] = target: IgG Fc-hVEGF-A (Human VEGF 165) fusion protein (rabbit; human) (UniProt P15692); assay: competitive ELISA: antibody mixed with IgG Fc-hVEGF, added to plate-bound IgG Fc-VEGFR2 (KDR); bound VEGF detected (OD405); blocked ligand-receptor pair VEGF/KDR [FIG. 1]
[3] = target: T1, human VEGF (human, UniProt P15692-4 27-191, limits assumed); assay: SPR, BIAcore-3000, human VEGF on CM5 chip
T1 construct: The background describes VEGF as a homodimer

B1: recombinant humanized antibody expressed by the HZD-V1 clone (antibody, V domains shown)
VH: QQLVESGGGLVKPGGSLRLSCAASGFSFSNNDVMCWVRQAPGKGLEWIGCIMTTDVVTEYANWAKSRFTVSKDSAKNSVYLQMNSLRAEDTAVYFCARDSVGSPLMSFDLWGPGTLVTVSS
VL: ALQMTQSPSSLSASVGDRVTINCQASQSVYGNNELSWYQQKPGKPPKLLIYRASTLASGVPSRFSGSGSGTDFTLTISSLQPEDVATYYCGGYKSYSNDGNGFGGGTKVEIK
notes: The pairing of VH-HZD1 with VK-HZD1 for clone HZD-V1 is inferred from the names; Variable domains were cloned onto human CH and human CK
- binding [1]: binds
- binding [2]: binds

B4: EPI0030 antibody (humanized rabbit anti-VEGF monoclonal antibody expressed by the HZD-V6 clone) (antibody, human IgG1, kappa, V domains shown)
VH: EVQLVESGGGLVKPGGSLRLSCAASGFSFSNNDVMCWVRQAPGKGLEWIGCIMTTDVVTEYANWAKSRFTVSRDSAKNSVYLQMNSLRAEDTAVYFCARDSVGSPLMSFDLWGPGTLVTVSS
VL: DIQMTQSPSSLSASVGDRVTINCQASQSIYNNNELSWYQQKPGKPPKLLIYRASTLASGVPSRFSGSGSGTDFTLTISSLQPEDVATYYCGGYKSYSNDGNGFGGGTKVEIKR
- binding [3]: binds

Other lines, results leading:

- binding [1]: binds
- binding [2]: binds
B2: recombinant humanized antibody expressed by the HZD-V5 clone (antibody, V domains shown)
VH: B4 VH with R73K
VL: B1 VL with A1D, L2I
notes: The pairing of VH-HZD5 with VK-HZD5 for clone HZD-V5 is inferred from the names; Variable domains were cloned onto human CH and human CK

- binding [1]: binds
- binding [2]: binds
B3: recombinant humanized antibody expressed by the HZD-V2 clone (antibody, V domains shown)
VH: B1 VH with K72R
VL: B1 VL with V29I, G31N
notes: The pairing of VH-HZD2 with VK-HZD2 for clone HZD-V2 is inferred from the names; Variable domains were cloned onto human CH and human CK
